Experimental data: article PMC5765116
No constants are given. Whether binding was seen depends on the method and setting. Binding seen in cells or lysates may run through a third protein. Some entries that bind do so weakly or less than the wild type.

Protein sequences, listed by entry. Tags and fused reporters are not part of them.
UniProt P10415: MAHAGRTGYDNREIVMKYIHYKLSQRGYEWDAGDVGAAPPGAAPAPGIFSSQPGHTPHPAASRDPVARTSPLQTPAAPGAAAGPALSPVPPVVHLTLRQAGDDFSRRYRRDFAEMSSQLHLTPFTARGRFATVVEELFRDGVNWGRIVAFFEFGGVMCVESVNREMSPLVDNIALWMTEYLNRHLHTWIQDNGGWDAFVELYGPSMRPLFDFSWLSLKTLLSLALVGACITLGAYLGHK
UniProt Q14457: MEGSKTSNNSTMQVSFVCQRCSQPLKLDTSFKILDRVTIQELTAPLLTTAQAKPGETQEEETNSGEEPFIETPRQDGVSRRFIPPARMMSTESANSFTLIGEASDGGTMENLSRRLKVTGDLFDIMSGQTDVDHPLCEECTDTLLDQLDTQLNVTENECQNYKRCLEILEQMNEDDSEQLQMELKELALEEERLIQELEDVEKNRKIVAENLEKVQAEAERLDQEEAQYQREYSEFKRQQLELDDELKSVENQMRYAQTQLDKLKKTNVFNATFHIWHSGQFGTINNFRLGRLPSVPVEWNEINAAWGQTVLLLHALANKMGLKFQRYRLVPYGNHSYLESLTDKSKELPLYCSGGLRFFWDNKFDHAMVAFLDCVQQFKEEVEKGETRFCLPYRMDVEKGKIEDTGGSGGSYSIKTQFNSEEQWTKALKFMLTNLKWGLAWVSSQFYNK

Target: Bcl-2 (human (endogenous in Huh7)) (UniProt P10415)
Experiment: co-IP

Beclin 1 (from UniProt Q14457 1-450)
binding: binds
